In paper PMC2134951:
Results are given in words; binding and its absence hold for the method and conditions named. Binding seen in cells or lysates may run through a third protein. Some entries that bind do so weakly or less than the wild type.

The chains behind the UniProt entries cited, without tags or fusion partners. Where a name states a change or a piece, a line headed by the entry shows the natural chain unless it says otherwise.
UniProt Q5ZS31: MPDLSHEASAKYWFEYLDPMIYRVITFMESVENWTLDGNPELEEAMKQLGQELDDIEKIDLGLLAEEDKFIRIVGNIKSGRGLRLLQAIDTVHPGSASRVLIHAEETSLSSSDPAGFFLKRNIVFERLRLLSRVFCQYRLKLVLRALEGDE
UniProt Q6RCQ6: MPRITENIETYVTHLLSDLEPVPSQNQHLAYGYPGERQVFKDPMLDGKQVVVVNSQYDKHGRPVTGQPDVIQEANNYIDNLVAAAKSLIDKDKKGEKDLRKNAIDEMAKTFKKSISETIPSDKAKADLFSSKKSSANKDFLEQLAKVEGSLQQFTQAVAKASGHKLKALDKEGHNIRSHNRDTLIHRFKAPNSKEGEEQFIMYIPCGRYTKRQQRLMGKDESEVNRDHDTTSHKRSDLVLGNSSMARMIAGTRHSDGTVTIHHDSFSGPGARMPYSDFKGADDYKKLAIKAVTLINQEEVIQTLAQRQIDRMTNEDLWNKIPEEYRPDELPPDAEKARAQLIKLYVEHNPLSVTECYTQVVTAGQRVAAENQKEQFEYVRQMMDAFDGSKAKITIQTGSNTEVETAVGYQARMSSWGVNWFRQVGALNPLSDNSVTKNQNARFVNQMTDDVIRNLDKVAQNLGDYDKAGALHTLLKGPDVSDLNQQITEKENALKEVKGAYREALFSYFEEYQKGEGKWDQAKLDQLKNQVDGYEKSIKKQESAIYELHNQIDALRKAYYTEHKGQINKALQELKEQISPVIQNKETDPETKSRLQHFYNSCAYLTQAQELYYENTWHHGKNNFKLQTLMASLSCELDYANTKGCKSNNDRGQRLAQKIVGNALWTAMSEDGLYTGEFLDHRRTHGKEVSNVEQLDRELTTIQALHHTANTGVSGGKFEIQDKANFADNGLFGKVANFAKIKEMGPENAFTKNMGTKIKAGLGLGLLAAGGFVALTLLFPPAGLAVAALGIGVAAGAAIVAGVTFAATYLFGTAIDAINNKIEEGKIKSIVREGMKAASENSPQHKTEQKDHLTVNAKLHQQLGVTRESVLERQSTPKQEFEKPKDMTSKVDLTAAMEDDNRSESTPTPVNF

Target: H6IcmW/IcmS complex (L. pneumophila) (UniProt Q5ZS31)
Experiment: pull-down

SidF (from UniProt Q6RCQ6 1-912)
binding: binds
